Reference: article PMC7949057, “The cytoprotective protein MANF promotes neuronal survival independently from its role as a GRP78 cofactor” (The Journal of Biological Chemistry, 2021)
These are yes or no findings as the source states them, for the method shown. Binding seen in cells or lysates may run through a third protein. Here binding means that the protein was enriched with, or labelled near, the bait; the list need not be complete. Where a sequence is shown, tags or fusion partners need not be part of it.

T1: SH-tagged MANF (pre-SH-MANF), expressed in INS1 cells (human) (UniProt P55145)
T1 sequence: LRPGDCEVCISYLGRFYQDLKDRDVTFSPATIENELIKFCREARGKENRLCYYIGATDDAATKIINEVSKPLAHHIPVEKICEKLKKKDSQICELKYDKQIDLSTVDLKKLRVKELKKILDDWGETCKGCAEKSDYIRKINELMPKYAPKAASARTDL

B1: PDIA6, endogenous in INS1 (protein, UniProt Q63081 20-440)
chain: LYSSSDDVIELTPSNFNREVIQSDSLWLVEFYAPWCGHCQRLTPEWKKAASALKDVVKVGAVNADKHQSLGGQYGVQGFPTIKIFGANKNKPEDYQGGRTGEAIVDAALSALRQLVKDRLGGRSGGYSSGKQGRGDSSSKKDVVELTDDTFDKNVLDSEDVWMVEFYAPWCGHCKNLEPEWAAAATEVKEQTKGKVKLAAVDATVNQVLASRYGIKGFPTIKIFQKGESPVDYDGGRTRSDIVSRALDLFSDNAPPPELLEIINEDIAKKTCEEHQLCVVAVLPHILDTGATGRNSYLEVLLKLADKYKKKMWGWLWTEAGAQYELENALGIGGFGYPAMAAINARKMKFALLKGSFSEQGINEFLRELSFGRGSTAPVGGGSFPNITPREPWDGKDGELPVEDDIDLSDVELDDLEKDEL
B2: HS105, endogenous in INS1 (protein, UniProt Q66HA8 1-858)
chain: MSVVGLDVGSQSCYIAVARAGGIETIANEFSDRCTPSVISFGPKNRTIGVAAKNQQITHANNTVSSFKRFHGRAFNDPFIQKEKENLSYDLVPMKNGGVGIKVMYMDEDHLFSVEQITAMLLTKLKETAENNLKKPVTDCVISVPSFFTDAERRSVLDAAQIVGLNCLRLMNDMTAVALNYGIYKQDLPNADEKPRVVVFVDMGHSSFQVSACAFNKGKLKVLGTAFDPFLGGKNFDEKLVEHFCAEFKTKYKLDAKSKIRALLRLHQECEKLKKLMSSNSTDLPLNIECFMNDKDVSAKMNRSQFEELCAELLQKIEVPLHLLMEQTHLKTEEVSAIEIVGGATRIPAVKERIARFFGKDVSTTLNADEAVARGCALQCAILSPAFKVREFSVTDAVPFPISLVWNHDSEETEGVHEVFSRNHAAPFSKVLTFLRRGPFELEAFYSDPQAVPYPEAKIGRFVVQNVSAQKDGEKSKVKVKVRVNTHGIFTISTASMVEKVPTEEEDGSSVEADMECPNQKPAESSDVDKNIQQDNSEAGTQPQVQTDGQQTSQSPPSPELTSEENKIPDADKANEKKVDQPPEAKKPKIKVVNVELPVEANLVWQLGRDLLNMYIETEGKMIMQDKLEKERNDAKNAVEECVYEFRDKLCGPYEKFICEQEHEKFLRLLTETEDWLYEEGEDQAKQAYIDKLEELMKMGTPVKVRFQEAEERPRVLEELGQRLQHYAKIAADFRGKDEKYNHIDESEMKKVEKSVNEVMEWMNNVMNAQAKRSLHQDPVVRTHEISAKVKELNNVCEPVVTQPKPKIESPKLERTPNGPNMDKKEDLEGKSNLGADAPHQNGECHPNEKGSVSMDLD
B3: PGAM1, endogenous in INS1 (protein, UniProt P25113 1-254)
chain: MAAYKLVLIRHGESAWNLENRFSGWYDADLSPAGHEEAKRGGQALRDAGYEFDICFTSVQKRAIRTLWTVLDAIDQMWLPVVRTWRLNERHYGGLTGLNKAETAAKHGEAQVKIWRRSYDVPPPPMEPDHPFYSNISKDRRYADLTEDQLPSCESLKDTIARALPFWNEEIVPQIKEGKRVLIAAHGNSLRGIVKHLEGLSEEAIMELNLPTGIPIVYELDKNLKPIKPMQFLGDEETVRKAMEAVAAQGKVKK
B4: GRP170, endogenous in INS1 (protein, UniProt Q63617 33-999)
chain: LAVMSVDLGSESMKVAIVKPGVPMEIVLNKESRRKTPVTVTLKENERFLGDSAAGMAIKNPKATLRYFQHLLGKQADNPHVALYRSRFPEHELNVDPQRQTVRFQISPQLQFSPEEVLGMVLNYSRSLAEDFAEQPIKDAVITVPAFFNQAERRAVLQAARMAGLKVLQLINDNTATALSYGVFRRKDINSTAQNIMFYDMGSGSTVCTIVTYQTVKTKEAGTQPQLQIRGVGFDRTLGGLEMELRLREHLAKLFNEQRKGQKAKDVRENPRAMAKLLREANRLKTVLSANADHMAQIEGLMDDVDFKAKVTRVEFEELCADLFDRVPGPVQQALQSAEMSLDQIEQVILVGGPTRVPKVQEVLLKPVGKEELGKNINADEAAAMGAVYQAAALSKAFKVKPFVVRDAVIYPILVEFTREVEEEPGLRSLKHNKRVLFSRMGPYPQRKVITFNRYSHDFNFHINYGDLGFLGPEDLRVFGSQNLTTVKLKGVGESFKKYPDYESKGIKAHFNLDESGVLSLDRVESVFETLVEDSPEEESTLTKLGNTISSLFGGGTSSDAKENGTDAVQEEEESPAEGSKDEPAEQGELKEEAEAPMEDTSQPPPSEPKGDAAREGETPDEKESGDKSEAQKPNEKGQAGPEGVPPAPEEEKKQKPARKQKMVEEIGVELAVLDLPDLPEDELAHSVQKLEDLTLRDLEKQEREKAANSLEAFIFETQDKLYQPEYQEVSTEEQREEISGKLSATSTWLEDEGFGATTVMLKDKLAELRKLCQGLFFRVEERRKWPERLSALDNLLNHSSIFLKGARLIPEMDQIFTDVEMTTLEKVINDTWTWKNATLAEQAKLPATEKPVLLSKDIEAKMMALDREVQYLLNKAKFTKPRPRPKDKNGTRTEPPLNASAGDQEEKVIPPTGQTEEAKAILEPDKEGLGTEAADSEPLELGGPGAESEQAEQTAGQKRPLKNDEL
B5: ECHB, endogenous in INS1 (protein, UniProt Q60587 35-475)
chain: SAPAVQTKSKKTLAKPNLKNIVVVEGVRIPFLLSGTSYKDLMPHDLARAALSGLLYRTNIPKDVVDYIIFGTVIQEVKTSNVAREAALGAGFSDKTPAHTVTMACISSNQAMTTAVGLIASGQCDVVVAGGVELMSDVPIRHSRNMRKMMLDLNKAKTLAQRLSLLTKFRLNFLSPELPAVAEFSTNETMGHSADRLAAAFAVSRMEQDKYALRSHSLAKKAQDEGHLSDIVPFKVPGKDTVSKDNGIRPSSLEQMAKLKPAFIKPYGTVTAANSSFLTDGASAMLIMSEDRALAMGYKPKAYLRDFIYVSQDPKDQLLLGPTYATPKVLEKAGLTMNDIDAFEFHEAFSGQILANFKAMDSDWFAQNYMGRKTKVGAPPLEKFNIWGGSLSLGHPFGATGCRLVMAAANRLRKDGGQYALVAACAAGGQGHAMIVEAYPK
B6: transketolase, endogenous in INS1 (protein, UniProt P50137 1-623)
chain: MEGYHKPDQQKLQALKDTANRLRISSIQATTAAGSGHPTSCCSAAEIMAVLFFHTMRYKALDPRNPHNDRFVLSKGHAAPILYAVWAEAGFLPEAELLNLRKISSDLDGHPVPKQAFTDVATGSLGQGLGAACGMAYTGKYFDKASYRVYCMLGDGEVSEGSVWEAMAFAGIYKLDNLVAIFDINRLGQSDPAPLQHQVDVYQKRCEAFGWHAIIVDGHSVEELCKAFGQAKHQPTAIIAKTFKGRGITGIEDKEAWHGKPLPKNMAEQIIQEIYSQVQSKKKILATPPQEDAPSVDIANIRMPTPPNYKVGDKIATRKAYGLALAKLGHASDRIIALDGDTKNSTFSELFKKEHPDRFIECYIAEQNMVSIAVGCATRDRTVPFCSTFAAFFTRAFDQIRMAAISESNINLCGSHCGVSIGEDGPSQMALEDLAMFRSVPMSTVFYPSDGVATEKAVELAANTKGICFIRTSRPENAIIYSNNEDFQVGQAKVVLKSKDDQVTVIGAGVTLHEALAAAEMLKKEKIGVRVLDPFTIKPLDKKLILDCARATKGRILTVEDHYYEGGIGEAVSAVVVGEPGVTVTRLAVSQVPRSGKPAELLKMFGIDKDAIVQAVKGLVTKG
B7: NADPH--cytochrome P450 reductase, endogenous in INS1 (protein, UniProt P00388 1-678)
chain: MGDSHEDTSATMPEAVAEEVSLFSTTDMVLFSLIVGVLTYWFIFRKKKEEIPEFSKIQTTAPPVKESSFVEKMKKTGRNIIVFYGSQTGTAEEFANRLSKDAHRYGMRGMSADPEEYDLADLSSLPEIDKSLVVFCMATYGEGDPTDNAQDFYDWLQETDVDLTGVKFAVFGLGNKTYEHFNAMGKYVDQRLEQLGAQRIFELGLGDDDGNLEEDFITWREQFWPAVCEFFGVEATGEESSIRQYELVVHEDMDVAKVYTGEMGRLKSYENQKPPFDAKNPFLAAVTANRKLNQGTERHLMHLELDISDSKIRYESGDHVAVYPANDSALVNQIGEILGADLDVIMSLNNLDEESNKKHPFPCPTTYRTALTYYLDITNPPRTNVLYELAQYASEPSEQEHLHKMASSSGEGKELYLSWVVEARRHILAILQDYPSLRPPIDHLCELLPRLQARYYSIASSSKVHPNSVHICAVAVEYEAKSGRVNKGVATSWLRAKEPAGENGGRALVPMFVRKSQFRLPFKSTTPVIMVGPGTGIAPFMGFIQERAWLREQGKEVGETLLYYGCRRSDEDYLYREELARFHKDGALTQLNVAFSREQAHKVYVQHLLKRDREHLWKLIHEGGAHIYVCGDARNMAKDVQNTFYDIVAEFGPMEHTQAVDYVKKLMTKGRYSLDVWS
B8: ERO1-like protein alpha, endogenous in INS1 (protein, UniProt Q8R4A1 24-464)
chain: EEQQQETAAQRCFCQVSGYLDDCTCDVETIDKFNNYRLFPRLQKLLESDYFRYYKVNLRKPCPFWNDINQCGRRDCAVKPCHSDEVPDGIKSASYKYSKEANLLEECEQAERLGAVDESLSEETQKAVLQWTKHDDSSDSFCEVDDIQSPDAEYVDLLLNPERYTGYKGPDAWRIWSVIYEENCFKPQTIQRPLASGQGKHKENTFYSWLEGLCVEKRAFYRLISGLHASINVHLSARYLLQDNWLEKKWGHNVTEFQQRFDGVLTEGEGPRRLKNLYFLYLIELRALSKVLPFFERPDFQLFTGNKVQDVENKELLLEILHEVKSFPLHFDENSFFAGDKNEAHKLKEDFRLHFRNISRIMDCVGCFKCRLWGKLQTQGLGTALKILFSEKLIANMPESGPSYEFQLTRQEIVSLFNAFGRISTSVRELENFRHLLQNVH
B9: phosphatidylethanolamine-binding protein 1, endogenous in INS1 (protein, UniProt P31044 1-187)
chain: MAADISQWAGPLSLQEVDEPPQHALRVDYGGVTVDELGKVLTPTQVMNRPSSISWDGLDPGKLYTLVLTDPDAPSRKDPKFREWHHFLVVNMKGNDISSGTVLSEYVGSGPPKDTGLHRYVWLVYEQEQPLNCDEPILSNKSGDNRGKFKVESFRKKYHLGAPVAGTCFQAEWDDSVPKLHDQLAGK
B10: leucine-rich repeat-containing protein 59, endogenous in INS1 (protein, UniProt Q5RJR8 1-307)
chain: MTKTGSKGGNLRDKLDGNELDLSLSDLNEVPVKELAALPKATVLDLSCNKLSTLPSDFCGLTHLVKLDLSKNKLQQLPADFGRLVNLQHLDLLNNRLVTLPVSFAQLKNLKWLDLKDNPLDPVLAKVAGDCLDEKQCKQCANKVLQHMKAVQADQERERQRRLEVEREAEKKREAKQQAKEAKERELRKREKAEEKERRRKEYDAQKASKREQEKKPKKETNQAPKSKSGSRPRKPPPRKHNRSWAVLKGLLLLLLLCVAGGLVVCRVTGLQQQPLCTSVNAIYDNAVQGLRHHEILQWVLQTDSQQ

These binders were tested against T1, SH-tagged MANF (pre-SH-MANF), expressed in INS1 cells (human) (assay: affinity purification with mass spectrometry; SH-tagged MANF as bait from doxycycline-induced INS1 pre-SH-MANF cells; HENN lysis buffer; Strep-Tactin beads, biotin elution; GFP-SH cells as negative control; FDR <= 0.001, s0 = 2).

binding, binds:
B1
B2
B3
B4
B5
B6
B7
B8
B9
B10
